Test results: US8461118B2, “Lytic peptides having anti-proliferative activity against prostate cancer cells” (Tuskegee University, priority 2011, dated 2013)
Not every detail of the peptide structures is certain; ends, links or a residue may be inferred. Ends that are not written are not given here.

Tests used:
Assay type in all cases: cell-based, human
[1] = system: PC-3 cells treated with siRNA-LHRH-R; assay: Peptide sensitivity of PC-3 cells after siRNA-LHRH-R knockdown (trypan blue exclusion); conditions: 100 nM siRNA-LHRH-R
Protocol: To more firmly establish the significance of the mLHRH sequence on peptide activity, PC-3 cells were treated with siRNA-LHRH at 50 nM and 100 nM concentrations and assayed LHRH levels by immunofluorescence. In this Experiment, PC-3 cells were treated with siRNA-LHRH-R at 50 nM and 100 nM, and compared to control. For this experiment, a total of about 2×10^5 cells, equaling approximately 60-70% confluency, were plated in six-well plates. The LHRH-R siRNA (Santa Cruz, Calif.) was diluted in […] of Opti-MEM (Invitrogen, CA). A […] aliquot of Lipofectamine 2000 (Invitrogen, CA) was diluted in […] of Opti-MEM and incubated for 5 min at room temperature. The diluted siRNA and Lipofectamine 2000 were mixed according to manufacturer's directions and incubated for 20 min at room temperature. The resulting complexes were added to each well and incubated for 24 h. […]
LHRH-R expression was determined by immuno-fluorescence staining with 4′,6-diamidino-2-phenylindole (“DAPI”) utilizing anti-LHRH-R antibody (Lab Vision, CA) and Alexa 488 secondary antibody (Invitrogen, CA).
For purposes of comparison, PC-3 cells were treated with JC21 mLHRH or JCHmLHRH in the presence or absence of 100 nM siRNA-LHRH-R or siRNA-scramble treated cells. Cell viability was determined by trypan blue exclusion, and the results are depicted in the graph of FIG. 3C.

PC-3 cells [2] = assay: Real-time imaging, trypan blue exclusion and Annexin V in PC-3 cells
Protocol: In the various experiments described below, unless otherwise noted, real-time imaging of cell cultures was performed utilizing an Olympus DSU (Disk Scanning Units) Confocal microscope (Olympus America Inc., PA). The subject cells were maintained in 5% CO2 at 37° C. in an incubation chamber (Pathology Devices, Inc., MD). Images were taken every 15 min and processed utilizing MetaMorph Imaging Software (Molecular Devices, CA).
Although the mechanism associated with the anti-tumor activity of lytic peptides has not been defined, without wishing to be limited to any mechanism of action, it is believed that direct interaction of the present lytic peptides with the cell membrane causes the electrochemical potential to collapse, resulting in cell death. To investigate the potential mechanism of action, a qualitative approach utilizing real-time imaging was employed in conjunction with monitoring of a classic marker of apoptosis, Annexin V. Since the mechanism of death was unknown, real-time imaging was employed for cells in a 5% CO2 and temperature-regulated (37° C.) chamber to monitor the effects of JC21mLHRH and JCHmLHRH on PC-3 cellular responses.
PC-3 cell cultures were exposed to JCHmLHRH (5 μM) or JC21mLHRH (8 μM) and imaged continuously for 24 h with time-lapse microscopy. FIG. 5A comprises eight black and white photographs depicting real-time images of PC-3 cells after treatment with lytic peptides JCHmLHRH (5 μM) or JC21mLHRH (8 μM) taken with time-lapse microscopy under 5% CO2 and 37° C. at 0, 3, 6, and 12 hours post administration. […] There were different modes of action by which JCHmLHRH and JC21mLHRH caused cell death.
FIG. 5B is a graph reporting experimental results for cell percentage corresponding to the images of FIG. 5A. Quantification of total cell number and cell viability was determined by trypan blue exclusion after exposure to JCHmLHRH (5 μM) or JC21mLHRH (8 μM) over a 24 h period. The results shown in the graph of FIG. 5B are representative of three individual experiments performed in triplicate (where the horizontal line at approximately 60% in the graph indicates significance at p<0.0001). The data indicates a rapid mode of action was observed by both the real-time imaging and trypan blue staining mechanisms, with nearly 80% cell death after only 6 h of treatment and approximately 100% cell death after the 24 h period.

RFP-PC-3 cells = assay: Co-culture differential fluorescence, RFP-PC-3 cells; conditions: JCHmLHRH 5 μM or JC21mLHRH 8 μM, 12 hr
Protocol: In the various experiments described below, unless otherwise noted, co-cultures were prepared and utilized as described by Yates et al. (see Yates C, Shepard C R, Papworth G, Dash A, Beer Stolz D, Tannenbaum S, et al., Novel three-dimensional organotypic liver bioreactor to directly visualize early events in metastatic progression, Adv Cancer Res, 2007; 97:225-46; and Yates C, Shepard C R, Stolz D B, Wells A., Co-culturing human prostate carcinoma cells with hepatocytes leads to increased expression of E-cadherin, Br J Cancer 2007; 96:1246-52), with certain modifications as noted herein. The co-cultures consisted of 50,000 cells/cm^2 of GFP-HS-27a bone marrow stromal cells and 2000 cells/cm^2 of red fluorescent protein PC-3 prostate cancer cells (“RFP-PC-3”), and were maintained in Dulbecco's modified Eagle medium, and cell death was monitored in real-time (as described above) by differential fluorescence. To determine relative intensity, the total intensity area of each image as well as the threshold intensity for each channel was measured utilizing Metamorph Imaging Software (Molecular Devices, Inc., CA), and the significance between the two intensities was then analyzed statistically. All quantitative data was normalized to each control image. […]

PC-3 cells [3] = assay: PC-3 growth recovery after 24 h peptide pretreatment; conditions: 24 h pretreatment JCHmLHRH 5 μM or JC21mLHRH 8 μM, 3 days
Protocol: This experiment was performed to determine whether cancerous cells could recover after JCHmLHRH or JC21mLHRH exposure. PC-3 cell cultures were exposed to JCHmLHRH (5 μM) or JC21mLHRH (8 μM) for 24 hours. Growth was measured over a 3-day period. Growth of pre-treatment and post-treatment groups were compared over time.

QHWSWGLRPGFALALKALKKALKKLKKALKKAL [JCHmLHRH]
decrease in sensitivity to peptide on depletion of LHRH levels [1]: 50%
morphological changes in cells (PC-3 cells [2]; PC-3 cells, 3 h exposure, real-time imaging): morphological changes
cell death (PC-3 cells [2]; PC-3 cells, JCHmLHRH 5 μM or JC21mLHRH 8 μM, 6 h of treatment): ~80%
cell death (PC-3 cells [2]; PC-3 cells, JCHmLHRH 5 μM or JC21mLHRH 8 μM, after the 24 h period): approximately 100%
mode of cell death observed under microscope (PC-3 cells [2]; PC-3 cells, JCHmLHRH 5 μM or JC21mLHRH 8 μM, time-lapse microscopy): membrane rupture and cell bursting
expression of apoptotic marker Annexin V (PC-3 cells [2]; exposed PC-3 cells): did not observe expression of apoptotic marker Annexin V
relative intensity of RFP-PC-3 cells (RFP-PC-3 cells): approaches zero
cell growth after pretreatment (PC-3 cells [3]): completely inhibited cell growth
